Counter-ions that a name gives are not always drawn. ± gives the standard deviation of the averaged measurements. The list shows a part of the results. Part of the spread comes from offsets between plates or batches.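 The cells are a mouse kidney inner medullary collecting duct line, silenced either for the ciliary gene Rpgrip1l or with a non-targeting control siRNA.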

The subject of the assay is mIMCD3. As to the kind of experiment: robust z score of cilia incidence (% cells with single cilium) vs plate controls; higher = more ciliated cells. The conditions noted are these: 10 µM; 48 h; siRNA: siScr.
Regarding `Cc1[nH]c(/C=C2\C(=O)Nc3ccc(S(=O)(=O)Cc4c(Cl)cccc4Cl)cc32)c(C)c1C(=O)N1CCC[C@@H]1CN1CCCC1`, the “robust z score of cilia incidence” value was -16.2 ± 8.7.
Next, `CCCn1c(=O)c(C)cn2nc(N)nc12`: 4.01 ± 5.9; `Cc1cc(C)cc(C(=O)N(C)[C@H](Cc2ccc(-c3ccccc3)cc2)C(=O)N[C@@H](Cc2c[nH]c3ccccc23)C(=O)O)c1`: -110 ± 56.
The result for `CCc1c2c(nc3ccc(OC(=O)N4CCC(N5CCCCC5)CC4)cc13)-c1cc3c(c(=O)n1C2)COC(=O)[C@]3(O)CC` reads -17.6 ± 5.6; that for `O=c1[nH]c2cc(C(F)(F)F)c(N3CCOCC3)cc2n(CP(=O)(O)O)c1=O`, 0.319 ± 1.3.
As to `O=C1N(c2ccccc2)c2ccccc2C1(Cc1ccncc1)Cc1ccncc1` [Linopirdine dihydrochloride], the “robust z score of cilia incidence” value stood at 0.568 ± 2.
The result for `C[C@@H](NCc1cc(Br)cc2[nH]c(=O)c(=O)[nH]c12)P(=O)(O)O` reads 0.516 ± 0.61.
Next, `Cl/C(=C\n1cncn1)c1ccc(Cl)cc1Cl` [Loreclezole hydrochloride]: 3.62 ± 2.9; `O=C(NCCNCC(O)COc1ccc(O)cc1)N1CCOCC1` (stereo not drawn) [Xamoterol hemifumarate]: -1.38 ± 2.8; `COc1ccc(Cl)cc1NC(=O)Nc1cc(C)nc2ccccc12`: -25.8 ± 19.
As for `Nc1nc2c(nc(Br)n2[C@@H]2O[C@@H]3COP(=O)(O)O[C@H]3[C@H]2O)c(=O)[nH]1` [8-Bromo-cGMP, sodium salt], the “robust z score of cilia incidence” value came out at 1.54 ± 2.2.
The result for `CN(C)C(=O)C(=O)c1cn(C)c2cc(Cl)c(C(=O)N3CCC(Cc4ccc(F)cc4)CC3)cc12` reads -4.42 ± 2.2; that for `CSc1cc2c(cc1C(F)(F)F)N(C(=O)Nc1cccnc1)CC2`, 5.63 ± 4.1.
